From the supplement of paper PMC10849652
The list shows a part of the results. Residues, ends and D or L forms follow the SMILES beside them. *: point of attachment. Cbz = O=C(OCc1ccccc1)*

Amino acid sequences for entries named in this document (tags omitted). A change or cut given only in a name is not applied to a line headed by its entry.
UniProt Q9NP81: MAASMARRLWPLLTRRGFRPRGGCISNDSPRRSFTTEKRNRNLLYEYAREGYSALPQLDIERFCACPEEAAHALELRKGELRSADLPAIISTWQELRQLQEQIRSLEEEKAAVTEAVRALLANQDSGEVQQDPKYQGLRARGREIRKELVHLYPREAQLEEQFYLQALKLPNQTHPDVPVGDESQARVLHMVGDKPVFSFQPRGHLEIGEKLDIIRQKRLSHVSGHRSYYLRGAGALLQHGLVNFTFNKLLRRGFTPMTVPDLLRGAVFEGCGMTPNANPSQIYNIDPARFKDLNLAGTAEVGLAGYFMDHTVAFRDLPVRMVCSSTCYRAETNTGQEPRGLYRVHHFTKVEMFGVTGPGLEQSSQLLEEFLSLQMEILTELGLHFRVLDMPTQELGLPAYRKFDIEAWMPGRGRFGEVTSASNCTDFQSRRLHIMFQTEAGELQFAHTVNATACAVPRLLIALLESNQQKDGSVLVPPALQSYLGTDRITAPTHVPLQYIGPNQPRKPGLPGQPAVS

Assays:
Experiment in all cases: log2 fold change, soluble protein after heating vs DMSO (PISA); higher = thermal stabilisation; K562 cells, 10 uM, 30 min; active = over 0.2 and 3.5 SD of the protein, either way, in both replicates (recomputed)
erlotinib = compound: C#Cc1cccc(Nc2ncnc3cc(OCCOC)c(OCCOC)cc23)c1 [erlotinib]
How it was run: (§1)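 Soluble protein was defined as the supernatant after 21,000xg for 90 min. It came from K562 cells at 2×10^6 cells/mL given 10 μM compound for 30 min, heated in aliquots for 3 min across 48°C-58°C, pooled, and extracted in PBS with 0.5% NP-40 at 4°C, and was quantified by TMTpro 16plex LC-MS/MS with equalised channel sums. Thermal stability against control samples, from duplicates, is reported as log2 fold change.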

[1] = compound: C/C(=N\NC(=O)C1=CC(=CC=C1)S(=O)(=O)N2CCOCC2)/C3=C(C=CC(=C3)Cl)O
How it was run: as §1

[2] = compound: C1=CC(=C(C=C1Cl)C2=NC3=NC=CN=C3C(=N2)NC4=CC=NC=C4)F
How it was run: as §1

[3] = compound: C1=CC(=CC=C1C2=NC3=C(N2)C=C(C=C3)C(=O)N)OC4=CC=C(C=C4)Cl
How it was run: as §1

[4] = compound: C1=CC2=C(C=CC(=C2)/C=C\3/C(=O)NC(=NCC4=CC=CS4)S3)N=C1
How it was run: as §1

[5] = compound: C1=CC2=NC=CN=C2C=C1/C=C/3\C(=O)NC(=O)S3
How it was run: as §1

[6] = compound: C1=CC=C(C=C1)C2=NC(=C(N2)C3=CC=NC=C3)C4=CC(=C(C=C4)Cl)O
How it was run: as §1

[7] = compound: C1=CC=C(C=C1)[C@H](COC2=CC3=C(C=C2)NC(=O)N3)NC(=O)C4=CC=CN(C4=O)CC5=CC(=C(C=C5)F)F
How it was run: as §1

[8] = compound: C1=CC=C2C(=C1)C3=NNC4=CC=CC(=C43)C2=O
How it was run: as §1

[9] = compound: C1CCN(C1)C(=O)NC2=CC=CC(=C2)NC3=NC=C(C(=N3)NCCC4=CN=CN4)Br
How it was run: as §1

[10] = compound: C1CN(CCC1(CC2=CC=C(C=C2)Cl)N)C3=NC=NC4=C3C=CN4
How it was run: as §1

IRAK-1-4 Inhibitor I = compound: C1COCCN1CCN2C3=CC=CC=C3N=C2NC(=O)C4=CC(=CC=C4)[N+](=O)[O-] [IRAK-1-4 Inhibitor I]
How it was run: as §1

ibrutinib = compound: C=CC(=O)N1CCC[C@@H](n2nc(-c3ccc(Oc4ccccc4)cc3)c3c(N)ncnc32)C1 [ibrutinib]
How it was run: as §1

[11] = compound: CC(=O)c1cnc2ccc(-c3cc(Cl)c(O)c(Cl)c3)nc2c1N[C@H]1CC[C@H](CN(C)C)CC1
How it was run: as §1

ralimetinib = compound: CC(C)(C)Cn1c(N)nc2ccc(-c3[nH]c(C(C)(C)C)nc3-c3ccc(F)cc3)nc21 [ralimetinib]
How it was run: as §1

[12] = compound: CC(C)(O)CC(=O)NCCn1ccc2ncnc(Nc3ccc(Oc4cccc(C(F)(F)F)c4)c(Cl)c3)c21
How it was run: as §1

[13] = compound: CC(C)C1=C2N=C(C=C(N2N=C1)NCC3=CC=CC=C3)NCCCCCCN
How it was run: as §1

[14] = compound: CC(C)C[C@@H](C=O)NC(=O)[C@H](CC(C)C)NC(=O)[C@H](CC(C)C)NC(=O)OCc1ccccc1
How it was run: as §1

pinometostat = compound: CC(C)N(C[C@H]1O[C@@H](n2cnc3c(N)ncnc32)[C@H](O)[C@@H]1O)[C@H]1C[C@@H](CCc2nc3cc(C(C)(C)C)ccc3[nH]2)C1 [pinometostat]
How it was run: as §1

[15] = compound: CC1=C(C(CC(=O)N1)C2=CC=C(C=C2)C(F)(F)F)C(=O)NC3=C(C=C4C(=C3)C=NN4)F
How it was run: as §1

[16] = compound: CC1=C(C2=C(C=C1)C(=O)C3=CC=CC=C3N2CCCN)C
How it was run: as §1

[17] = compound: CC1=C(C=C(C=C1)NC(=O)C2=CC(=CC=C2)C(C)(C)C#N)NC3=CC4=C(C=C3)N=CN(C4=O)C
How it was run: as §1

[18] = compound: CC1=C(C=C(C=C1)NC(=O)C2=CC(=CC=C2)N(C)C)NC(=O)C3=CC=C(C=C3)O
How it was run: as §1

[19] = compound: CC1=C(SC2=C1C(=N[C@H](C3=NN=C(N32)C)CC(=O)N)C4=CC=C(C=C4)Cl)C
How it was run: as §1

[20] = compound: CC1=C2C(=CC=C1)N=C(N(C2=O)C3=CC=CC=C3C)CN4C=NC5=C(N=CN=C54)N
How it was run: as §1

[21] = compound: CC1=CC=C(C=C1)SC2=C3C=C(SC3=CN=C2)C(=O)N
How it was run: as §1

[22] = compound: CC1=NC(=CC=C1)C2=C(N=C(N2)C(C)(C)C)C3=CC4=NC=CN=C4C=C3
How it was run: as §1

Nexturastat A = compound: CCCCN(Cc1ccc(C(=O)NO)cc1)C(=O)Nc1ccccc1 [Nexturastat A]
How it was run: as §1

vemurafenib = compound: CCCS(=O)(=O)Nc1ccc(F)c(C(=O)c2c[nH]c3ncc(-c4ccc(Cl)cc4)cc23)c1F [vemurafenib]
How it was run: as §1

[23] = compound: CCCS(=O)(=O)Nc1ccc(F)c(C(=O)c2c[nH]c3ncc(Cl)cc23)c1F
How it was run: as §1

[24] = compound: CCCc1cc(C)[nH]c(=O)c1CNC(=O)c1cc(-c2ccnc(N3CCN(C)CC3)c2)cc2c1cnn2C(C)C
How it was run: as §1

givinostat = compound: CCN(CC)Cc1ccc2cc(COC(=O)Nc3ccc(C(=O)NO)cc3)ccc2c1 [givinostat]
How it was run: as §1

barasertib = compound: CCN(CCCOc1ccc2c(Nc3cc(CC(=O)Nc4cccc(F)c4)[nH]n3)ncnc2c1)CCOP(=O)(O)O [barasertib]
How it was run: as §1

[25] = compound: CC[C@@H]1C(=O)N(C)c2cnc(Nc3ccc(C(=O)NC4CCN(C)CC4)cc3OC)nc2N1C1CCCC1
How it was run: as §1

volasertib = compound: CC[C@@H]1C(=O)N(C)c2cnc(Nc3ccc(C(=O)N[C@H]4CC[C@H](N5CCN(CC6CC6)CC5)CC4)cc3OC)nc2N1C(C)C [volasertib]
How it was run: as §1

[26] = compound: CC[C@H](C)N1C=C(C2=C(C=C(C=C21)C3=CN=C(C=C3)N4CCNCC4)C(=O)NCC5=C(C=C(NC5=O)C)C)C
How it was run: as §1

epoxomicin = compound: CC[C@H](C)[C@@H](C(=O)N[C@@H]([C@@H](C)O)C(=O)N[C@@H](CC(C)C)C(=O)[C@]1(CO1)C)NC(=O)[C@H]([C@@H](C)CC)N(C)C(=O)C [epoxomicin]
How it was run: as §1

[27] = compound: CCn1c(C(=O)N(C2CC2)C2CC2)cc2c3c(ncn3C)c(Nc3cc(C)n(C)n3)nc21
How it was run: as §1

[28] = compound: CCn1cc(-c2ccnc3[nH]c(-c4cccc(CN(C)C)c4)cc23)c(-c2ccc(NC(=O)N(C)C)cc2)n1
How it was run: as §1

[29] = compound: CN(C)CC(=O)Nc1ccc2[nH]c(=O)c3ccccc3c2c1
How it was run: as §1

rosiglitazone = compound: CN(CCOC1=CC=C(C=C1)C[C@H]2C(=O)NC(=O)S2)C3=CC=CC=N3 (racemic) [rosiglitazone]
How it was run: as §1

[30] = compound: CN1C2=C(C3=C1C(=O)N(N=C3)CC4=CC(=CC=C4)N)SC(=C2)S(=O)C
How it was run: as §1

[31] = compound: CN1CCC(CNc2ccc3ncc(-c4cccc(OC(F)(F)F)c4)n3n2)CC1
How it was run: as §1

saracatinib = compound: CN1CCN(CCOc2cc(OC3CCOCC3)c3c(Nc4c(Cl)ccc5c4OCO5)ncnc3c2)CC1 [saracatinib]
How it was run: as §1

sotrastaurin = compound: CN1CCN(c2nc(C3=C(c4c[nH]c5ccccc45)C(=O)NC3=O)c3ccccc3n2)CC1 [sotrastaurin]
How it was run: as §1

alvocidib = compound: CN1CC[C@H](c2c(O)cc(O)c3c(=O)cc(-c4ccccc4Cl)oc23)[C@H](O)C1 [alvocidib]
How it was run: as §1

Tubastatin A = compound: CN1CCc2c(c3ccccc3n2Cc2ccc(C(=O)NO)cc2)C1 [Tubastatin A]
How it was run: as §1

[32] = compound: CNC(=O)C1=CC=CC=C1NC2=NC(=NC=C2Cl)NC3=C(C=C(C=C3)N4CCOCC4)OC
How it was run: as §1

Measured: log2 fold change

SARS2 (UniProt Q9NP81)
inactive: erlotinib 0.027 | [1] 0.036 | [2] 0.022 | [3] 0 | [4] -0.03 | [5] 0.014 | [6] -0.001 | [7] 0.009 | [8] 0.022 | [9] 0.009 | [10] 0 | IRAK-1-4 Inhibitor I 0.013 | ibrutinib 0.018 | [11] -0.007 | ralimetinib 0.004 | [12] -0.019 | [13] -0.036 | [14] -0.008 | pinometostat -0.071 | [15] -0.006 | [16] -0.009 | [17] -0.012 | [18] 0.031 | [19] 0.024 | [20] 0.022 | [21] 0.013 | [22] 0.052 | Nexturastat A -0.045 | vemurafenib 0.005 | [23] 0.02 | [24] -0.012 | givinostat 0.012 | barasertib -0.013 | [25] 0.006 | volasertib -0.007 | [26] 0.009 | epoxomicin -0.008 | [27] 0.009 | [28] 0 | [29] -0.009 | rosiglitazone 0.008 | [30] -0.04 | [31] -0.024 | saracatinib 0.023 | sotrastaurin 0.005 | alvocidib -0.063 | Tubastatin A -0.016 | [32] -0.01
